Publication PMC3795569, “Crystal structure of the N-terminal domain of MinC dimerized via domain swapping” (Journal of Synchrotron Radiation, 2013)
Results are given in words; binding and its absence hold for the method and conditions named. Binding seen in cells or lysates may run through a third protein. Some binding calls cover weakened binding; strength is not graded here.

Target: Escherichia coli MinC (EcoMinC) (Escherichia coli) (UniProt P18196)
Assay: cross-linking; chemical crosslinking of EcoMinC at a high concentration; data not shown

binding: binds
B1: Escherichia coli MinC (EcoMinC) (protein, UniProt P18196 1-231)
chain: MSNTPIELKGSSFTLSVVHLHEAEPKVIHQALEDKIAQAPAFLKHAPVVLNVSALEDPVNWSAMHKAVSATGLRVIGVSGCKDAQLKAEIEKMGLPILTEGKEKAPRPAPTPQAPAQNTTPVTKTRLIDTPVRSGQRIYAPQCDLIVTSHVSAGAELIADGNIHVYGMMRGRALAGASGDRETQIFCTNLMAELVSIAGEYWLSDQIPAEFYGKAARLQLVENALTVQPLN
